A short description of the data set: ICH-compliant stability study of ONC206-HCl Drug Substance (appearance, XRPD form, HPLC assay, purity/impurities, water content, particle size, microbial). Type of data set: physicochemical. Also noted: key to Escherichia Coli (Absence in 1 g) / Escherichia Coli (Absence in lg): C = Conforms; A = Absence. The protocol: The purpose of the ICH-compliant stability study was to evaluate the performance to specifications of ONC206-HCl Drug Substance under specified container closure configuration, storage conditions, and intervals.
The study was performed according to ICH Q1A(R2) and QlE Guidance documents. […]
The Container Closure Systems were: • Primary container: LDPE bag, 4×8 inches (Source: Nexus—64378); bag closure PE 180 nm (Source: Entourage), • Secondary container: LDPE bag, 4×8 inches (Source: Nexus—64378); bag closure PE 180 nm (Source: Entourage), • Tertiary container: Heat-sealed foil bag, 15×30 (Source: SERCALIA S.L.—10234), and • Outer container: Plastic drum, 6 L (Source: Curtec, HDPE ref 54021) or Plastic drum, 3.6 L (Source: Curtec).

Setting [1] is: 25 ± 2° C./60% ± 5% RH long term storage conditions, 6 months.
Setting [2] is: 25 ± 2° C./60% ± 5% RH long term storage conditions, 12 months.
Setting [3] is: 30 ± 2° C./65% ± 5% RH intermediate conditions, 6 months.
Setting [4] is: 30 ± 2° C./65% ± 5% RH intermediate conditions, 12 months.
Setting [5] is: 40 ± 2° C./75% ± 5% RH accelerated conditions, 6 months.

The record followed here is patent US20260265252A1, “SOLID STATE FORMS OF IMIPRIDONE DERIVATIVE” (CHIMERIX, INC., priority 2024, published 2026).

Where a name gives a salt, the structure may show the parent alone.

For the compound `O=C1C2=C(CCN(Cc3ccccc3)C2)N2CCN=C2N1Cc1ccc(F)cc1F` [ONC206-HCl, 7-benzyl-4-(2,4-difluorobenzyl)-2,4,6,7,8,9-hexahydroimidazo[1,2-a]pyrido[3,4-e]pyrimidin-5(1H)-one], the “Escherichia Coli (Absence in 1 g)” value is listed as “A” (2-8° C., 6 months); “A” under setting [1]; “A” under setting [2]; “A” under setting [3]; “A” under setting [4]; “A” under setting [5]. Moreover, the “Toral aerobic microbial count (NMT 1000 CFU/g)” value reads like this: (2-8° C., 6 months) under 200 CFU/g; under setting [1], under 200 CFU/g; under setting [2], under 200 CFU/g; under setting [3], under 200 CFU/g; under setting [4], under 200 CFU/g; under setting [5], under 200 CFU/g. In addition, the “Toral aerobic microbial count (NMT 1000 CFU/g)” value is, setting by setting: (−20° C., 6 months) under 200 CFU/g; (−20° C., 12 months) under 200 CFU/g. Also, the “Total Combined yeast & molds Count (NMT 1000 CFU/g)” value (“Total Combined yeast & molds Count” below) is under 5 CFU/g (2-8° C., 6 months); under 5 CFU/g under setting [1]; under 5 CFU/g under setting [2]; under 5 CFU/g under setting [3]; under 5 CFU/g under setting [4]; under 5 CFU/g under setting [5]. Also, the “Total Combined yeast & molds Count” value (−20° C., 6 months) is reported as under 5 CFU/g and the “Total Combined yeast & molds Count” value (−20° C., 12 months) is under 5 CFU/g. For the same compound, the “Escherichia Coli (Absence in lg)” value reads like this: (−20° C., 6 months) “A”; (−20° C., 12 months) “A”.
